In article PMC9526944:
No constants are given. Whether binding was seen depends on the method and setting. Binding seen in cells or lysates may run through a third protein. Here binding means that the protein was enriched with, or labelled near, the bait; the list need not be complete.

Protein sequences, listed by entry. Tags and fused reporters are not part of them.
UniProt Q91YI4: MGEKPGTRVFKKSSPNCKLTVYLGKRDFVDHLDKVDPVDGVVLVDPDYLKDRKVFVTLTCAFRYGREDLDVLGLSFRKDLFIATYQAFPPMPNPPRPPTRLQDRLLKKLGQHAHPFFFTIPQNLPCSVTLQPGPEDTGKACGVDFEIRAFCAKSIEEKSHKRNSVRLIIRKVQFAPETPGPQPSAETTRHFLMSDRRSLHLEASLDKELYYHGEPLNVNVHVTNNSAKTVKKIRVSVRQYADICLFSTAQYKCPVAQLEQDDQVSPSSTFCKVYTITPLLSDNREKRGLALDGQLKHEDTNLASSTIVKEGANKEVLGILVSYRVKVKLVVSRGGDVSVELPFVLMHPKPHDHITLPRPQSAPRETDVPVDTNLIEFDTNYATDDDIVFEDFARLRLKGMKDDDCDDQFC
UniProt P42227: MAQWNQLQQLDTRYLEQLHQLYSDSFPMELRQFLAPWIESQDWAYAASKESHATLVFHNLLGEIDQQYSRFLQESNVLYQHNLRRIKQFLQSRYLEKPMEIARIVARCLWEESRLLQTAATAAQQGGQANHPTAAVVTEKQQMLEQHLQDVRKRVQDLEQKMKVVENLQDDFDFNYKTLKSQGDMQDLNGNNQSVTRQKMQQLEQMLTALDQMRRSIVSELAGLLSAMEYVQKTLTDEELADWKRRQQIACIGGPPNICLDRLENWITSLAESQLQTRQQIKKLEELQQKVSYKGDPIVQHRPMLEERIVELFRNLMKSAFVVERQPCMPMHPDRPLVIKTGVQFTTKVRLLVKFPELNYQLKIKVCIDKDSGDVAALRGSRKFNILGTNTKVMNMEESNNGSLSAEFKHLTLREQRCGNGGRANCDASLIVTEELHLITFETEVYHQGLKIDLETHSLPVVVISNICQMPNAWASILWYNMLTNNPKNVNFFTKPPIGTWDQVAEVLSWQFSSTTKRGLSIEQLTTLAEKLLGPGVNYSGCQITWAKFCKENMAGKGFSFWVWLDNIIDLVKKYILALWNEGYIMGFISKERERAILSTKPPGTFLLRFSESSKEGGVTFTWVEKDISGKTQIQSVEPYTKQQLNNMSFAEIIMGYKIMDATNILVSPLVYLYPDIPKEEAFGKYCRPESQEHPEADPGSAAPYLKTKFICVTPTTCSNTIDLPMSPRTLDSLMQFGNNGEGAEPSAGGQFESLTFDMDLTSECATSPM

Biological target: β-arrestin2 (bait of the immunoprecipitation for mass spectrometry) (UniProt Q91YI4)
Test: affinity purification with mass spectrometry; immunoprecipitation with anti-β-arrestin2 antibody, FASP digestion, label-free mass spectrometry (Q Exactive, MaxQuant); source of the sample not stated

- binding: binds
Substance: STAT3 (found in the β-arrestin2 immunoprecipitate by mass spectrometry) (from UniProt P42227 1-770)
